Assay results as given in patent US8471032B2, “Benzimidazole compound in crystal form and salt thereof” (Mitsubishi Tanabe Pharma Corporation, priority 2008, dated 2013).
Some of these results come from one statement about several compounds together.

assay: Water adsorption measurement (DVS-1 water adsorption apparatus), index of hygroscopicity; assay type: physicochemical; conditions: relative humidity changed within 0% to 95%; amount of change based on the weight at relative humidity 0%
Procedure: The water adsorption measurement, which becomes an index of hygroscopicity, was performed using a DVS-1 type water adsorption apparatus (manufactured by SMS) under the following conditions. Using a sample (about 6-12 mg), the relative humidity was changed within the relative humidity range of 0% to 95%. The weight change was recorded for each predetermined relative humidity, and converted to the amount of change (%) based on the weight at relative humidity 0%. […] As to this compound, the zero point was amended based on the moisture value of the sample measured by the Karl Fischer's method, and the weight change was converted to the amount of change (%).

Row | SMILES | weight increase (water adsorption / moisture absorption)
1 | CNC(=O)Cn1c(=O)n(C2CCN([C@@H]3Cc4cccc5cccc3c45)CC2)c2ccccc21 (racemic) [Example 15, (R)-2-{3-[1-(acenaphthen-1-yl)piperidin-4-yl]-2,3-dihydro-2-oxo-benzimidazol-1-yl}-N-methylacetamide] | not less than 4%
2 | CNC(=O)Cn1c(=O)n(C2CCN([C@@H]3Cc4cccc5cccc3c45)CC2)c2ccccc21 [Example 3, (R)-2-{3-[1-(acenaphthen-1-yl)piperidin-4-yl]-2,3-dihydro-2-oxo-benzimidazol-1-yl}-N-methylacetamide] | not less than 4%
3 | CNC(=O)Cn1c(=O)n(C2CCN([C@@H]3Cc4cccc5cccc3c45)CC2)c2ccccc21 [Example 7, (R)-2-{3-[1-(acenaphthen-1-yl)piperidin-4-yl]-2,3-dihydro-2-oxo-benzimidazol-1-yl}-N-methylacetamide] | not less than 4%
4 | CNC(=O)Cn1c(=O)n(C2CCN([C@@H]3Cc4cccc5cccc3c45)CC2)c2ccccc21 [Example 11, (R)-2-{3-[1-(acenaphthen-1-yl)piperidin-4-yl]-2,3-dihydro-2-oxo-benzimidazol-1-yl}-N-methylacetamide] | not less than 4%
5 | CNC(=O)Cn1c(=O)n(C2CCN([C@@H]3Cc4cccc5cccc3c45)CC2)c2ccccc21 [Example 13, (R)-2-{3-[1-(acenaphthen-1-yl)piperidin-4-yl]-2,3-dihydro-2-oxo-benzimidazol-1-yl}-N-methylacetamide] | not less than 4%
6 | CNC(=O)Cn1c(=O)n(C2CCN([C@@H]3Cc4cccc5cccc3c45)CC2)c2ccccc21 [Example 14, (R)-2-{3-[1-(acenaphthen-1-yl)piperidin-4-yl]-2,3-dihydro-2-oxo-benzimidazol-1-yl}-N-methylacetamide] | not less than 4%
